Experimental data: patent US20240190920A1, “BECLIN 1-TARGETED STAPLED PEPTIDE AND PHARMACEUTICAL COMPOSITION” (Shenzhen Research Institute of the Hong Kong Polytechnic …, priority 2021, published 2024)
Some of these results come from one statement about several compounds together. Bridge positions count the residues as written; N and C are the ends. Square brackets hold non-standard residues; d marks the D form. Peptide text beside a SMILES is read from it. R8 = C=CCCCCCC[C@@](C)(N)C(=O)O; S5 = C=CCCC[C@](C)(N)C(=O)O

By UniProt entry, the sequences of proteins in these tests, tags left out. Residues count along the entry.
UniProt Q14457, 176-268: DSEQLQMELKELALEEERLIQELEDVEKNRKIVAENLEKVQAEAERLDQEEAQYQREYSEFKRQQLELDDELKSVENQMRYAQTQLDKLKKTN

Target: T1, Beclin 1 coiled coil domain (Homo sapiens, UniProt Q14457)
T1 construct: the coiled coil domain of human Beclin 1 (residues 176-268); thioredoxin-6xHis fusion tag with HRV 3C protease cleavage site; made in house; host or cells: Escherichia coli BL21(DE3)
Test: Isothermal titration calorimetry (ITC) binding affinity
Conditions: ratio to Tat-SP4
Protocol: The expression and purification of Beclin 1 coiled coil domain is performed as described previously. Briefly, the coiled coil domain of human Beclin 1 (residues 176-268) is cloned into the modified pET32a vector containing the human rhinovirus (HRV) 3C protease cleavage site and thioredoxin-6×His fusion tag. Recombinant protein for the Beclin1 coiled oil domain is expressed in Escherichia coli BL21(DE3) and purified by Ni^2+-NTA affinity chromatography (His Trap HP, GE Healthcare) first and followed by size-exclusion chromatography (Superdex 75, GE Healthcare).
ITC assays are carried out by MicroCal PEAQ-ITC Automated (Marvern) at 25° C. All designed peptides and purified protein for the Beclin 1 coiled coil domain are dialyzed into the buffer containing 50 mM Tris, 150 mM NaCl at pH 7.4. For each titration assay, the injection syringe is loaded with 40 μl of peptide and the cell is loaded with Beclin 1 coiled coil domain protein. Typically, titrations consist of 19 injections, and each injection is performed at a time interval of 180 seconds to ensure that the titration peak returns to the baseline. The titration data are analyzed using the MicroCal PEAQ-ITC Analysis software and fitted by the one-site binding model.

CC[C@H](C)[C@@H]1NC(=O)[C@H](C(C)C)NC(=O)[C@H](CC(=O)O)NC(=O)[C@H](C(C)C)NC(=O)[C@H](CC(C)C)NC(=O)[C@](C)(NC(=O)[C@H](CC(N)=O)NC(=O)[C@H](Cc2ccccc2)NC(=O)[C@H](CC(C)C)NC(=O)[C@@H](NC(=O)[C@H](CCCNC(=N)N)NC(=O)[C@H](CCCNC(=N)N)NC(=O)[C@H](CCCNC(=N)N)NC(=O)[C@H](CCC(N)=O)NC(=O)[C@H](CCCNC(=N)N)NC(=O)[C@H](CCCNC(=N)N)NC(=O)[C@H](CCCCN)NC(=O)[C@H](CCCCN)NC(=O)[C@H](CCCNC(=N)N)NC(=O)CNC(=O)[C@H](Cc2ccc(O)cc2)NC(C)=O)C(C)C)CCCCCCC=CCCC[C@@](C)(C(=O)N[C@@H](CCCNC(=N)N)C(=O)N[C@@H](CCCCN)C(=O)N[C@H](C(N)=O)C(C)C)NC(=O)[C@H](CCCCN)NC1=O [i7-01s-31] (Ac-YGRKKRRQRRRVLFN[R8]LVDVIK[S5]RKV-NH2; staple 16-23)
binding affinity stronger than Tat-SP4: 10-30 fold
